From ChEMBL document CHEMBL3988442, “University of Dundee, Small-Polar-MMV Screening Library” (2021).

Chains of the proteins cited; added tags and fusions are not shown. Residues count along the entry.
UniProt P9WNZ1, whole entry: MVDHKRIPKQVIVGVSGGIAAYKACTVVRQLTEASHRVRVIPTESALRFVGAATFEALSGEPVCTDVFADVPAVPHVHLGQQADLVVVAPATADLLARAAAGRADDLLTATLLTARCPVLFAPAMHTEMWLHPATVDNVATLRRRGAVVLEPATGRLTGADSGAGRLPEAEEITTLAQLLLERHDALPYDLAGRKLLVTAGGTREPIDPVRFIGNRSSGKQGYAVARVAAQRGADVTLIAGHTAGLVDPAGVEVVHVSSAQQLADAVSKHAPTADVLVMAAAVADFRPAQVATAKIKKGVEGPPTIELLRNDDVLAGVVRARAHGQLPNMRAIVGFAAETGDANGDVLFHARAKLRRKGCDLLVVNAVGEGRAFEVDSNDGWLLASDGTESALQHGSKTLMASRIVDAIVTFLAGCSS
UniProt Q4DA54, 1-478: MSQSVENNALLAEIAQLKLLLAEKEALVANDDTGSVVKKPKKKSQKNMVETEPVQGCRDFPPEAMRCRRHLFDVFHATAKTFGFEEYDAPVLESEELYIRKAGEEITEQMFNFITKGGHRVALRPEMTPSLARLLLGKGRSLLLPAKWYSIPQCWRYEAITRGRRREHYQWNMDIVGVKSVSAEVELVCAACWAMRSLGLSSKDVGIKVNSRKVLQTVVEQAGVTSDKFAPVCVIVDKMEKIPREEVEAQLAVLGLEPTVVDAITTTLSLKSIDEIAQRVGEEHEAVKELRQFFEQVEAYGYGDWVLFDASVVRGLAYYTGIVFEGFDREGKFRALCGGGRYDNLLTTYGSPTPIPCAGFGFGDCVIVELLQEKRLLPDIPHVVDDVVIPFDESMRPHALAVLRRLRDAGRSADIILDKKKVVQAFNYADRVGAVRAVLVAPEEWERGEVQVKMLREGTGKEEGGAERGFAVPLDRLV

A: 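Enzyme assay of CoaBC with a phosphate dye (Biomol Green) read at 650 nm. Target: Coenzyme A biosynthesis protein CoaBC, Mycobacterium tuberculosis (UniProt P9WNZ1). Concentration: 30 µM. Higher reads as stronger inhibition, judged from the few compounds that gave an IC50. Most strong results did not repeat in a second test. Size under these conditions: about 67,000 compounds, about 40 of them at 50% or above in at least one test.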
B: 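Histidine-tRNA ligase, Trypanosoma cruzi CL Brener (UniProt Q4DA54). Enzyme assay of histidyl-tRNA synthetase; the read-out is not stated. Concentration: 30 µM. The record gives no direction; compounds that gave an IC50 in retests scored well above the rest, so higher reads as stronger inhibition. About 69,000 compounds were tested under these conditions; 0.045% (about 31) showed 50% or more at least once.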

Results are given as percent effect.
The record does not define 0% and 100%; most values in the screen are far below 50% and negative numbers occur (in some assays of this library far below -100).
The compounds are a random part of those screened.

- CN1CCCN(CC(CC(=O)Nc2ccc(Cl)cc2)C(=O)O)CC1 (centres undefined) : A: -7.547%; B: 5.155%
- CC(C)NC(=O)[C@@H]1CCO[C@@H]2CCN(c3ncccn3)C[C@@H]21 : A: 0.6452%; B: 3.483%
- COCC1CN(Cc2ccc(C)o2)Cc2nnn(C)c21 (centres undefined) : A: 1.468%; B: 10.89%
- CCc1ccc(C(=O)NC2CCc3nc(C)cn3C2)o1 (centres undefined) : A: 1.648%; B: -0.5917%
- CC(C)CCN(C)C(=O)c1cc(CN2CCC(O)CC2)on1 : A: 4.321%; B: -1.571%
- Cc1cnn(CC2CCCN2C(=O)Cc2c(C)noc2Cl)c1 (centres undefined) : A: -1.186%; B: 6%
- O=C(C1SCCc2sccc21)N1CCN(CC(F)F)CC1 (centres undefined) : A: -7.54%; B: 1.724%
- Fc1ccc2[nH]c3c(c2c1)CCN1C(c2ccccn2)N2CCC31CC2 (centres undefined) : A: -13.13%; B: 10.08%
- COCCN1CCC2(CC1)CC(NC(=O)CN(C)C)c1ccccc1O2 (centres undefined) : A: 3.99%; B: 6.796%
- Cc1cccc2c1CCN(c1cc(N3CCCC3CO)ncn1)C2 (centres undefined) : A: 5.4%; B: 9.244%
- Cn1cc(C(=O)Nc2ccc(CN3CCOCC3)cn2)cn1 : A: 1.899%; B: 3.448%
- Cc1ccc(CN2CCc3nnc(CN4CCCC4=O)n3CC2)o1 : A: 5.792%; B: 5.825%
- CCN(CC)C(=O)c1nc2c(s1)CCN(C(=O)Nc1ccccc1)CC2 : A: -0.9756%; B: 8.889%
- O=C(COCC1CC1)Nc1ccn(Cc2cccc3cccnc23)n1 : A: 3.748%; B: 3.247%
- CN(Cc1ccccc1)c1ncccc1CNC1CCC1 : A: 0.615%; B: 5.747%
- Cn1cc(C(=O)NCC2CCN(C(=O)NC3CCCCC3)CC2)cn1 : A: 1.615%; B: 3.152%
- CCC(=O)Nc1cccc(OCC(=O)N2CC=CC2C(C)C)c1 (centres undefined) : A: 7.403%; B: 7.463%
- COc1ccc(C2CCN(Cc3cscn3)CC2)cc1 : A: 7.514%; B: 1.754%
- CCOc1ccc(C#N)cc1NCc1cc(C)on1 : A: 2.73%; B: 12.14%
- COCC1CN(C(=O)C2=CCCC2)Cc2cnn(CC3CC3)c21 (centres undefined) : A: 10.74%; B: 4.301%
- O=C(NCc1cccs1)NCC1(O)CCc2ccccc2C1 (centres undefined) : A: -9.244%; B: 2.222%
- CCN1CCN(CCNc2nc3ccc(C)cc3c(=O)n2C)CC1 : A: -16.63%; B: 6.122%
- Cc1nc(CCC(=O)NC2CCC2)cc(C2CCNCC2)n1 : A: 15.54%; B: -0.5464%
- COCCN1C(=O)[C@H]2CC[C@@H]1CN(c1ncccn1)C2 : A: 8.894%; B: 0%
- O=C(c1ccccn1)N1CCN(c2ccc(-n3cccc3)nn2)CC1 : A: 10.5%; B: 0%
- Cc1cc(C(C)NC(=O)c2cnc3onc(C)c3c2)c(C)o1 (centres undefined) : B: 3.185%
- CC[C@@H]1N(Cc2ccc(F)cc2)CCC[C@]12CCC(=O)N2C : A: -1.412%; B: -0.4808%
- O=C1[C@H]2CN(Cc3nccs3)C[C@H]2CN1c1ccsc1 : A: -5.141%; B: 2.762%
- N#Cc1c[nH]nc1NCc1ccc2c(c1)OCO2 : A: -14.58%; B: 0.5181%
- O=C(NCCO)C1CN(c2cncnc2)CCO1 (centres undefined) : A: 10.71%; B: 3.731%
- Cc1ccsc1CN1CC[C@H]2OCC[C@@]2(C(=O)N2CCCO2)C1 : A: 14.18%; B: 13.33%
- Fc1cccc(-c2nc(CN3CCCC3Cn3cccn3)co2)c1 (centres undefined) : A: 9.318%; B: 5.187%
- c1ccc(SCCN2CCCC(Cn3ccnc3)C2)cc1 (centres undefined) : A: -0.6479%; B: -1.681%
- CC(NC(=O)N1CCCN(CC(F)F)CC1)c1ccco1 (centres undefined) : A: 3.777%; B: 2.646%
- COc1ccc(CN2CCOC[C@H](Oc3cccnc3)C2)cc1 : A: 6.402%; B: 7.609%
- COCCN(Cc1cc(O)nc2ccccc12)C(=O)NC(C)C : A: -1.446%; B: 10.89%
- Cn1nnc2c1C(COCC1CC1)CN(C(=O)Cc1ccsc1)C2 (centres undefined) : A: 2.915%; B: 4.348%
- c1ccc(C2=NOC3(CCN(Cc4c[nH]c5ccccc45)CC3)C2)cc1 : A: 4.211%; B: 5.325%
- CSCC(C)(O)CNc1cccc(F)c1C#N (centres undefined) : A: 10.33%; B: 4.124%
- CC(Nc1nccc(CCC(F)(F)F)n1)c1nc(-c2ccccn2)no1 (centres undefined) : A: 3.671%; B: 8.537%
- CC(C)CCC(=O)NCc1ccc(N2CCCCC2)cc1 : A: 10.34%; B: 5.063%
- O=C(NCC1(O)CCSC1)c1ccn(-c2ccccc2F)n1 (centres undefined) : A: 9.888%; B: 0.9804%

Once more, the final 4:

* CSCC(C)(O)CNc1cccc(F)c1C#N (centres undefined) | A: 10.33%; B: 4.124%
* CC(Nc1nccc(CCC(F)(F)F)n1)c1nc(-c2ccccn2)no1 (centres undefined) | A: 3.671%; B: 8.537%
* CC(C)CCC(=O)NCc1ccc(N2CCCCC2)cc1 | A: 10.34%; B: 5.063%
* O=C(NCC1(O)CCSC1)c1ccn(-c2ccccc2F)n1 (centres undefined) | A: 9.888%; B: 0.9804%